Results from one PubChem assay

Data taken from PubChem BioAssay AID912, deposited by NCATS (2007).

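A cell-based FRET test of anthrax lethal toxin entry, tracked through the 460 nm emission signal; the cell line is not named here.
Each compound was tested as a concentration series from about 0.0005 to 40 µM.
The number is the fitted AC50 of the 460 nm signal alone; lower values mean a more potent effect. A falling signal goes with compounds filed as inhibitors or cytotoxic, a rising one with activators or fluorescent compounds (inferred from the filed classes).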

Values are in µM.
Common to all entries: measured here: 460 nm channel.
This is a side read-out of the assay, for part of the compounds, not drawn at random.
Potencies fitted to partial, single-point or poorly fitting curves are rough.
The first word of each remark tells which way the curve ran; it can be opposite to the aim of the assay.

SMILES | AC50 (µM) | remark
C=CCn1c(NC(=O)c2ccccc2)c(C#N)c2nc3ccccc3nc21 | 12.59 | rising, partial curve
Cc1sc(NC(=O)c2ccco2)nc1-c1ccc2c(c1)CC(C)N2C(=O)C1CC1 (stereo not drawn) | 12.59 | falling, partial curve
Cc1ccc(NC(=O)c2c(-c3c(F)cccc3Cl)noc2C)cc1F | 6.31 | falling, full curve
CCSc1ccccc1C(=O)Nc1cccnc1 | 7.943 | falling, partial curve
CC1(C)[N+]([O-])=C2C(=[N+]([O-])C1(C)C)c1ccccc1/C2=N\O | 0.01995 | falling, full curve, poor fit
CN(C)CCCN(C(=O)c1cccs1)c1nc(-c2ccccc2)cs1 | 1.995 | falling, partial curve
Cn1c2ccccc2c2c(C(=O)N3CCC4(CC3)OCCO4)cn(C3CCCC3)c(=O)c21 | 12.59 | rising, partial curve
Cn1c(NCCO)nc2c(c1=O)C1(CCCCC1)Cc1ccccc1-2 | 31.62 | falling, single point
CN(C)c1ccc(-c2nccc(Nc3ccc(F)cc3)n2)cc1 | 31.62 | falling, single point
Cc1cccc(CNc2nc(-c3ccc4c(c3)OCO4)nc3ccccc23)c1 | 1.995 | falling, partial curve
S=C(S)O[C@@H]1C[C@@H]2C[C@H]1[C@@H]1CCC[C@H]21 | 25.12 | falling, single point
O=C(c1cccc(F)c1)N1CCC2(CCCN(c3cccc(-c4ccccc4)c3)C2)CC1 | 3.981 | falling, single point
CCNc1ncc2nc(-c3cn(C)c4ccccc34)c(=O)n(Cc3ccc(F)cc3)c2n1 | 12.59 | rising, partial curve
COc1ccc(OC)c(-c2cc(C(=O)N3CCN(c4ccccc4)CC3)no2)c1 | 12.59 | falling, partial curve
O=C(c1ccco1)N1CCC2(CC1)CCN(c1ccncc1)CC2 | 10 | rising, partial curve
CCOC(=O)c1cc(-c2nnc(-c3ccc(Oc4ccccc4)cc3)o2)c(C)nc1C | 0.3981 | falling, full curve
CCCOc1ccccc1Cn1c(=O)oc2ccc(C)cc21 | 10 | falling, partial curve
COc1ccc(Br)cc1/C=c1\sc2nc(-c3ccco3)nn2c1=O | 0.1259 | falling, single point
CCCOc1ccc([C@@H]2C3CN(C(=O)OCC)CC=C3C(C#N)=C(N)C2(C#N)C#N)cc1OC (stereo partly drawn) | 25.12 | rising, single point
COCOc1ccc(Br)cc1C(=O)/C=C\c1ccc2c(c1)OCO2 | 3.981 | falling, partial curve
CCCc1cc(C(N)=O)c(NC(=O)c2ccoc2C)s1 | 31.62 | falling, single point
CCCn1nc(NS(C)(=O)=O)c2cc3cccc(C)c3nc21 | 31.62 | rising, single point
Cc1nc2ccc(S(=O)(=O)NCC(=O)NCCN3CCCCC3C)cc2s1 (stereo not drawn) | 0.01259 | falling, full curve, poor fit
Cc1cccc(NC(=O)c2cc3ccccc3o2)c1 | 31.62 | falling, single point
COc1cc(C2Nc3cccc4cccc(c34)N2)cc(OC)c1O | 15.85 | falling, partial curve
CC1=C(Sc2nc3ccccc3[nH]2)C(=O)NC(C)(C)C1 | 0.007943 | falling, full curve, poor fit
O=C(Nc1ccccc1)Nc1ccccc1C(=O)NCc1ccco1 | 0.0631 | falling, full curve
COc1ccc(C2CC(=O)C3=C(C2)NC(C)=C(C#N)C3c2ccc(N(C)C)cc2)cc1 (stereo not drawn) | 3.162 | falling, single point
Cn1cccc1C(=O)N1CCC[C@@]2(CCN(c3cccc(-c4ccccc4)c3)C2)C1 | 0.631 | falling, single point
COc1ccc(C(=O)Oc2ccc(/C=N/O)cc2)cc1 | 25.12 | falling, single point
N#Cc1ccc(CN2CC3(CCN(C(=O)c4cc(C(F)(F)F)cc(C(F)(F)F)c4)CC3)C2)cc1 | 2.512 | rising, partial curve
N[C@@H](COP(=O)(O)O)C(=O)O | 12.59 | falling, single point
Cc1ccc(Cl)cc1N1CCN(S(=O)(=O)c2cccc(S(=O)(=O)N3CCCC3)c2)CC1 | 0.07943 | falling, full curve, poor fit
Cc1ccc(C2CC(C(F)(F)F)n3nc(C(=O)NCc4c(C)nn(C)c4C)c(Cl)c3N2)cc1 (stereo not drawn) | 31.62 | falling, single point
COc1cc(Cn2c(N)c(C#N)c3nc4ccccc4nc32)cc(OC)c1 | 15.85 | rising, partial curve
O=C(CSC1=NCCN1)c1ccccc1 | 3.162 | falling, single point
O=C(c1cc2ccccc2o1)c1cccs1 | 0.05012 | falling, full curve, poor fit
c1ccc2sc(SCSc3nc4ccccc4s3)nc2c1 | 2.512 | falling, single point
COC(=O)c1ccccc1S(=O)(=O)NC(=O)c1ccccc1 | 0.01 | rising, partial curve
Oc1ccc(Cl)cc1Sc1cc(Cl)ccc1O | 5.012 | falling, full curve
COc1ccc(O)c(C2NC(CC(C)C)(C(=O)O)C3C(=O)N(Cc4ccccc4)C(=O)C23)c1 (stereo not drawn) | 15.85 | rising, single point
CCN(CC)CCNC(=O)CCc1nn(C)c(=O)c2ccccc12 | 0.1585 | falling, single point
O=C(O)c1nn(Cc2ccc(Cl)cc2Cl)c2ccccc12 | 12.59 | falling, single point
Nc1[nH]nc2nc3ccccc3nc12 | 15.85 | falling, full curve
COCCN1C(=O)C(=O)/C(=C(/O)c2ccc3c(c2)OCCO3)C1c1ccc(C(=O)OC)cc1 (stereo not drawn) | 31.62 | rising, single point
C=CCn1c(=O)c(C#N)cc2c(=O)n3ccccc3nc21 | 6.31 | rising, partial curve